These results are taken from PubChem BioAssay AID1508600 (Functional Genomics Laboratory (NCATS/FGL), 2020).

About 3,700 (7%) of roughly 53,000 sequences were called active.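 The calls were made as follows: active = gene knockdowns whose robust z-score for IL-1 alpha signal is at least 2 or at most -2, so actives lie on both sides; inactive = the rest.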 Some of the results follow.

This test is described as follows: Components of the Cytosolic LPS Sensing Pathway: Gene Identification via Genome-wide siRNA Screen.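 Also: robust z of the log signal after scaling to non-targeting control siRNA wells of the plate.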 The note with it: RAW264.7 macrophages, IL-1a HTRF, actives lie on both sides, screened at 100 nM (by protocol), cells primed 5 h with Pam3CSK4 first. An outline of the steps:
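Three distinct siRNAs per gene were tested singly at 100 nM in RAW264.7 macrophages. Following Pam3CSK4 priming and 24 hour LipidA transfection, IL-1a secretion was read by HTRF.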
(Time-resolved FRET reads energy transfer from a long-lived donor to a nearby acceptor.)
Regarding GGCCUACGAAGUGCAAAGATT against Sipa1l3, the z-score was inactive: -0.667.

For the sequence GGAGGAGAUGAUGAAUUUUTT against Etf1, the z-score is inactive: 0.965.

GGCACACUUAUCAAAUAAATT against Rrm1: the z-score is inactive: -0.281.

In the case of CCAGAACGAAUCCCACUGUTT against Cmtm8, the z-score was inactive: -0.409.

With GGAUGAUCCAGACUAACUUTT against Abcb6, the z-score is inactive: -0.655.

As for GCGGCUAACUGAAUACAUGTT against Osbpl1a, the z-score was inactive: 0.975.

As for GGACACACUACCGAACAUUTT against Gfral, the z-score was inactive: -0.18.

On to CGAUAAAAUCAUUGUGGGCTT against Bbs9, for which the z-score is inactive: -1.18.

On to GCAUCGAUCUUUAUACACUTT against Arhgef12, for which the z-score was inactive: 1.13.

In the case of GCCUUGGCCGAGGUUAAUUTT against Rtl5, the z-score was inactive: -0.329.

Turning to CCUAUCUUUACCACAUAGATT against Vps35l, the z-score is inactive: -1.59.

As to GGAAGUCUCAUCGUAAUUCTT against Bud13, the z-score is inactive: -1.71.

Turning to GGACUGUCUGAUGUCAAAGTT against Synpr, the z-score was inactive: 0.619.

In the case of CCAAGAUCACAUACCGUGATT against Acss2, the z-score is inactive: -1.12.

Turning to GGAGUUCUUUCUGAGGUGUTT against Uqcc1, the z-score is inactive: 0.864.

For GGAACUUGGGCAUUCCAGATT against Adck2, the z-score is inactive: -0.676.

In the case of GGCUUGGAAGGAUUAGAAGTT against Ppp1r42, the z-score is inactive: 0.901.

With GCUAAUCUUUCCUCUGCCCTT against Mff, the z-score was inactive: -0.993.

As for CCAUAGUAUUGAUGUCUGCTT against Nat8f2, the z-score is inactive: 0.363.

With GGAUGGUGCAUACCUCUUCTT against Axin2, the z-score is inactive: 1.08.

As to GGAUAAAUCCUCAGAUGAUTT against Lrrc46, the z-score is inactive: 0.766.

With CCUUCUAAAUGACCUGUUUTT against Fam3a, the z-score is inactive: -1.21.

With GGUUAUAGGAAGGAAUUGCTT against Krt90, the z-score is active: 2.58.

Consider CCUAUGAACCCUAGGGUACTT against Ccdc142, for which the z-score was inactive: 0.705.

In the case of GGUGCUGGAGAACAUUCUATT against Angpt2, the z-score was inactive: 0.67.

Regarding GGACCUUGGUAAUAGAAAGTT against Pdzd4, the z-score is inactive: -0.0636.

With GGCGAAAAAGAACUUCUCCTT against Prrx1, the z-score was active: -2.17.

As to GGUUCAUGAAUGACAAACUTT against Sult4a1, the z-score was inactive: 0.383.

Take CCUAGUGUUAGAACAGAUCTT against Zmynd10: the z-score is inactive: 0.363.

As to GGAUCAUCAACCAUCUAAUTT against Srsf7, the z-score is inactive: -1.11.

With GGGCUACACAAAAUUUUAATT against Cxcl11, the z-score was inactive: 1.2.

In the case of GGAAACACACUGGUUCUGATT against Il6ra, the z-score was inactive: -0.0608.

Regarding GGAAAGAAAUGCUGAAAAUTT against Atp2a2, the z-score was inactive: -0.199.

With GCUAUUCAAUCUGAGGAAATT against Olfr1278, the z-score is inactive: 0.246.

CCUGUAGCUAGCUUCUAGGTT against Adamts10: the z-score is inactive: -0.46.

Regarding GGAUAUUGCCAGUAAUUAATT against Kif21a, the z-score is inactive: 0.212.

Regarding CCACCUCCAUCGAUGUUAUTT against Rassf9, the z-score was inactive: -1.84.

Take GGAAAAAAACUUGCUGGAUTT against Ppp3ca: the z-score is inactive: -0.681.

Turning to CCUCUUGAGUCGAGAUAUGTT against Wdr60, the z-score is inactive: -0.32.

In the case of GGGAUUGGGUUCCAAUCUUTT against Slc35b1, the z-score is inactive: -0.187.

On to GGAGAAGCAGCAACAGCUATT against Asgr2, for which the z-score was inactive: -0.64.

On to GGCUGUGAAGCUUACCAGCTT against Tm9sf4, for which the z-score was inactive: 0.123.

Turning to CCGCUCACGUGAAAAAGUUTT against Tars2, the z-score was inactive: 0.327.

Consider GGUCAUAGAUAACACGCUCTT against Cpne5, for which the z-score was inactive: 0.312.

GGUAUUUUUCAACAUUCUGTT against Slc9a7: the z-score is inactive: 0.36.

GCGCAACAGGAUUCAGCUATT against Csmd1: the z-score was inactive: -1.09.

For the sequence GCCUUCCAGUCAGUGAAAUTT against Foxn1, the z-score is inactive: -0.174.

In the case of GUCUUCAUACUCCAAUGUATT against Olfr878, the z-score was inactive: 1.05.

As to GGAUUCAUGUUCCAUAUGUTT against Ubox5, the z-score is inactive: -0.169.

Regarding GGAAAUUAAGUGAUUUGACTT against Ranbp10, the z-score is inactive: -0.213.

For CCACCAUUCGGCUCUUUUGTT against Nupl2, the z-score is inactive: -0.822.

For the sequence CGGUUACUUCAGAAAUCUATT against Tlr5, the z-score is inactive: 1.42.

Consider “GCUGUAUUCGCUGUGCCGUTT against St6galnac2”, for which the z-score was inactive: 1.51.

As to GGGCAUUUUUACAGUUUUCTT against Chfr, the z-score is inactive: 1.97.

Turning to GUACGUCAUGGGUCACUUCTT against Pomc, the z-score is inactive: -0.259.

For GCCAGUAAUCCAUACCGUGTT against C6, the z-score is inactive: 0.115.

Take GGACAAUUGGGCCAAACUGTT against Mpv17: the z-score is inactive: 0.103.

Consider GGUCACAGAAUGAAUGACUTT against Htra2, for which the z-score was inactive: -1.08.

Take “GGAUUCACGAGCAUAAGCUTT against 1700020D05Rik”: the z-score was inactive: -1.31.

As to GCAGUGUCUAGGACAGUCATT against Pdcd5, the z-score was inactive: 0.0243.

For the sequence GGGAAAGUCAGUUUAAAGATT against Baz1b, the z-score was inactive: 0.26.

For GCCCUUGUGAUUCGAAAUGTT against Atp1a1, the z-score is inactive: 1.39.

GGAUUACUGUGCUUCUAAUTT against Olfr788: the z-score was inactive: 0.743.

With GGUUUUGGGCAAAAUUGAGTT against Edf1, the z-score is inactive: -0.899.

Regarding GGUGGCAGUAUGAAUUCGATT against Serpina12, the z-score was inactive: 1.2.

With GGCAAGAAAAAUCAGAUUGTT against Cyld, the z-score is active: 3.

For the sequence GGCUCCCUUUUUUGUACUATT against Olfr1056, the z-score is inactive: -0.463.

Consider GGAUCAAGAAAAGAUGAAATT against Galnt1, for which the z-score is inactive: -0.858.

For CCAUUUGAUGACAGUAAUATT against Olfr178, the z-score was inactive: 1.03.

On to GGCAUUGAAGCUGAAAAGATT against Armt1, for which the z-score was inactive: -0.00635.

GGAGGCCUAUUUAAUGGAGTT against Dusp21: the z-score was inactive: 1.1.

Turning to GGCAGACAAGUUCACAGUGTT against Igsf6, the z-score is inactive: -1.38.

Regarding CCUAACAAGGGAAUAAAUGTT against Icosl, the z-score is inactive: -1.12.

For GCUCUAUGAGAGUAUAUUATT against Tamm41, the z-score is inactive: -0.495.

Regarding CCAUACUAUUUGCUUUUGCTT against Atg5, the z-score is inactive: 0.127.

With GGCAAGACUGAGCAAGAUUTT against Catsper3, the z-score is inactive: -1.05.

For the sequence GGAAAUCUCUUCAUGGAUATT against Kng1, the z-score was inactive: -0.425.

In the case of GGAAUUCAACUCAGAUAAGTT against C3, the z-score is inactive: 0.338.

On to CCUGGUUAGAGCAAGGAUGTT against Slc25a42, for which the z-score is inactive: -0.145.

For the sequence GGACUUCAGCAAUGUCUUGTT against Rab17, the z-score is inactive: 0.801.

Regarding GGAAGUGUAAUGGAAGCAATT against Mdfic, the z-score was inactive: 0.955.

With GGGAGUGAUGGUACCCUAUTT against Myf6, the z-score is inactive: -0.598.

Regarding GGGUUCUUUCACUGAACGATT against Pskh1, the z-score was inactive: 0.9.

For the sequence CCCUGAAACAAUGAAUACATT against Serpini1, the z-score was inactive: 0.325.

Take GGCCACGUUACACGUACUUTT against Wnt3a: the z-score was inactive: 0.123.

For GGACUGAAUUUACUCUUAATT against Scai, the z-score was inactive: 0.485.

In the case of GCUGGUGGCACUGAAGCUATT against Nme3, the z-score is inactive: -1.48.

Consider GGACACCAAAGUGAAUACATT against Cdhr5, for which the z-score is inactive: 0.122.

For the sequence GGCCAGAACUUAAAUUUUCTT against Nbr1, the z-score is inactive: 0.658.

Regarding GGCCAUCCUGGGCUAAAUATT against Abcb8, the z-score was inactive: 0.626.

In the case of CCGUGUUCUCUAUCCAGCATT against Slc7a9, the z-score is inactive: -0.247.

Turning to GGAAAGAAAGAGAAGAACATT against Phf21a, the z-score was inactive: 0.177.

For GGCACAACUGAUUUUGAAATT against Ifngr2, the z-score is inactive: -0.362.

As to GCUAAUGCUUGUUGAACACTT against Hpcal4, the z-score was inactive: 1.54.

Take GGAAGAAAAACUCUUGCACTT against Cdc5l: the z-score was inactive: 0.292.

With GGGUAGAGGCCUUGAAAAUTT against Gps1, the z-score was inactive: 1.26.

For the sequence CGACCAAGAGCAAAACGAUTT against Gm266, the z-score is inactive: 0.97.

For the sequence GCUGGAAUACGGAAAAUGGTT against Gbe1, the z-score is inactive: -1.56.

In the case of CCAUUAUGAAGAAGCUGUUTT against Rilpl2, the z-score is inactive: -0.138.

Turning to GGCUUACAAAAAGUACAUCTT against Tpt1, the z-score was active: 4.36.

For the sequence GGUAGAAGAGGAAUCUUGGTT against Pitpnm1, the z-score is inactive: -1.3.

As for CGGUCAUUUACGAGAUACCTT against Pdgfa, the z-score is inactive: 0.462.

For the sequence GGCCUUCAAGUGCAUGAUGTT against Yaf2, the z-score was inactive: -1.65.

On to GCUAAGCUGGAUCCAUAAUTT against Gm11545, for which the z-score was inactive: 1.35.

Regarding CCAUGAGACAAGAUUUAGATT against Olfr818, the z-score is inactive: -0.751.

On to CCAUGUAAGAUGUUAAGUATT against Abcb1a, for which the z-score was inactive: -0.265.

For CCGGAUGUGCCUUGUCUACTT against Ckap5, the z-score was inactive: -1.58.
